Assay results published in paper doi:10.1101/2025.05.16.654427.
Results are given in words; binding and its absence hold for the method and conditions named. Binding seen in cells or lysates may run through a third protein. Some results given as binding are weak or reduced against the parent protein; the word gives no strength. Sequences can lack the tags named with a protein.

T1: Flag-tagged human Aurora kinase A (AURKA) (human) (UniProt O14965)
T1 sequence: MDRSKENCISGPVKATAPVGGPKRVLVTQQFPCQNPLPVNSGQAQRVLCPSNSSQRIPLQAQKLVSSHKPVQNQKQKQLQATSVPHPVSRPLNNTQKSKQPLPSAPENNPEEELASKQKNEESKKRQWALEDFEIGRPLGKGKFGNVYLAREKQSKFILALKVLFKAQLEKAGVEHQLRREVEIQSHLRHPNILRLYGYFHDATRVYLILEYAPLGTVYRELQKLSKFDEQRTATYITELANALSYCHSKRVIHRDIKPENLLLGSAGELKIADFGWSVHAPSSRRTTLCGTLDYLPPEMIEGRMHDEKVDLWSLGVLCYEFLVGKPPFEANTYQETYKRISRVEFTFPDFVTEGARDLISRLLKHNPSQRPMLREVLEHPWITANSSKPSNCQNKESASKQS

T2: Flag-tagged human KIF2C (human) (UniProt Q99661)
T2 sequence: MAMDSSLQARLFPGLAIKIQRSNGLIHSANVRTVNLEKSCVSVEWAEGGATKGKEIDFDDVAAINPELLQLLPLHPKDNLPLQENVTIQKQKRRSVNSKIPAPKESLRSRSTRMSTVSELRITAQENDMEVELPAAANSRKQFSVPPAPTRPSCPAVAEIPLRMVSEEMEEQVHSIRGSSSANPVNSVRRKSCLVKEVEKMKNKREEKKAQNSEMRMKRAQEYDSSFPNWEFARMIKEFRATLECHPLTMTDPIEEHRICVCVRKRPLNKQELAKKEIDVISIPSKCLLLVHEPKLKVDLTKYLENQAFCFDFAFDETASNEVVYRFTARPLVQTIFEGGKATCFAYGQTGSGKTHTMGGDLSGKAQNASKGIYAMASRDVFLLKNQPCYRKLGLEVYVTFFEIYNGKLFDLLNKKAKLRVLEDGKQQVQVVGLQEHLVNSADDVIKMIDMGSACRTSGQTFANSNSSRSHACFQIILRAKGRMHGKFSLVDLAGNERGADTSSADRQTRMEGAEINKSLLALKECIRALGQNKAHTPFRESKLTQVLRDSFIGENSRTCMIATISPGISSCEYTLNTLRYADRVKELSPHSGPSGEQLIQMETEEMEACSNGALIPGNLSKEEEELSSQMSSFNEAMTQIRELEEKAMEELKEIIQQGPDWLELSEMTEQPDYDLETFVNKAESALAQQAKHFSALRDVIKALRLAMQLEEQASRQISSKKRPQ

T3: GFP-tagged human KIF2C (human) (UniProt Q99661)
T3 sequence: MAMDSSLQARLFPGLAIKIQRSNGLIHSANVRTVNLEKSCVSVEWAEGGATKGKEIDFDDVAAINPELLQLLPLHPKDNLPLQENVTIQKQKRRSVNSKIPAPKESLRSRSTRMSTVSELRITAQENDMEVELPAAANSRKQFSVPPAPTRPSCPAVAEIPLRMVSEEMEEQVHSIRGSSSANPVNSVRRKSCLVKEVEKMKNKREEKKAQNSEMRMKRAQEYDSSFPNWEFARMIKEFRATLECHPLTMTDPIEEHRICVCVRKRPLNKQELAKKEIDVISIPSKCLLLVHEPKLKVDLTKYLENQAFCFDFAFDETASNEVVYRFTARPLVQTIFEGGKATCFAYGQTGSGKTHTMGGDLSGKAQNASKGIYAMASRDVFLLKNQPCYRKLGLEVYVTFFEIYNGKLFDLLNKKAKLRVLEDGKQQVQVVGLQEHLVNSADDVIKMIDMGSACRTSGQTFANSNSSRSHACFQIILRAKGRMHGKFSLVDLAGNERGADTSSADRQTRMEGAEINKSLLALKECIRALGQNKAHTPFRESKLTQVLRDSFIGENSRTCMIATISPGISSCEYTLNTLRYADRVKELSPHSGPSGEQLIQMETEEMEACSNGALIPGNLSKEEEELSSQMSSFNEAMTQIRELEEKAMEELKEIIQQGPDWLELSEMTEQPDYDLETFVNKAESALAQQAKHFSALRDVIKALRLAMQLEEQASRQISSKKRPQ

T4: HA-tagged human NUSAP1 (nucleolar and spindle-associated protein 1), wild type (human) (UniProt Q9BXS6)
T4 sequence: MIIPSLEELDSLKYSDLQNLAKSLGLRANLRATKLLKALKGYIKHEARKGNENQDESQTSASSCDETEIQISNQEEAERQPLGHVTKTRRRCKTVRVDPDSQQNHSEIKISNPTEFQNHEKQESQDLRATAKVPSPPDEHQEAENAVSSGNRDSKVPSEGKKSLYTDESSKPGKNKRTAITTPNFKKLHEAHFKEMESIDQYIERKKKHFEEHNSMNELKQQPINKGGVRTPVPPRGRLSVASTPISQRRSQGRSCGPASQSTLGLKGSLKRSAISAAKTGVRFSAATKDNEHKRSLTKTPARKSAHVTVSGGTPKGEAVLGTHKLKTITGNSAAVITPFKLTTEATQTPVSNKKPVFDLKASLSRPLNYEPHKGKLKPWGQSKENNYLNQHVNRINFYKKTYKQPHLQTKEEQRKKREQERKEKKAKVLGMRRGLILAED

B1: HA-tagged human NUSAP1 (nucleolar and spindle-associated protein 1), wild type (protein, UniProt Q9BXS6-1 1-441)
chain: MIIPSLEELDSLKYSDLQNLAKSLGLRANLRATKLLKALKGYIKHEARKGNENQDESQTSASSCDETEIQISNQEEAERQPLGHVTKTRRRCKTVRVDPDSQQNHSEIKISNPTEFQNHEKQESQDLRATAKVPSPPDEHQEAENAVSSGNRDSKVPSEGKKSLYTDESSKPGKNKRTAITTPNFKKLHEAHFKEMESIDQYIERKKKHFEEHNSMNELKQQPINKGGVRTPVPPRGRLSVASTPISQRRSQGRSCGPASQSTLGLKGSLKRSAISAAKTGVRFSAATKDNEHKRSLTKTPARKSAHVTVSGGTPKGEAVLGTHKLKTITGNSAAVITPFKLTTEATQTPVSNKKPVFDLKASLSRPLNYEPHKGKLKPWGQSKENNYLNQHVNRINFYKKTYKQPHLQTKEEQRKKREQERKEKKAKVLGMRRGLILAED
B2: GFP-tagged human KIF2C (protein, UniProt Q99661-1 1-725)
chain: MAMDSSLQARLFPGLAIKIQRSNGLIHSANVRTVNLEKSCVSVEWAEGGATKGKEIDFDDVAAINPELLQLLPLHPKDNLPLQENVTIQKQKRRSVNSKIPAPKESLRSRSTRMSTVSELRITAQENDMEVELPAAANSRKQFSVPPAPTRPSCPAVAEIPLRMVSEEMEEQVHSIRGSSSANPVNSVRRKSCLVKEVEKMKNKREEKKAQNSEMRMKRAQEYDSSFPNWEFARMIKEFRATLECHPLTMTDPIEEHRICVCVRKRPLNKQELAKKEIDVISIPSKCLLLVHEPKLKVDLTKYLENQAFCFDFAFDETASNEVVYRFTARPLVQTIFEGGKATCFAYGQTGSGKTHTMGGDLSGKAQNASKGIYAMASRDVFLLKNQPCYRKLGLEVYVTFFEIYNGKLFDLLNKKAKLRVLEDGKQQVQVVGLQEHLVNSADDVIKMIDMGSACRTSGQTFANSNSSRSHACFQIILRAKGRMHGKFSLVDLAGNERGADTSSADRQTRMEGAEINKSLLALKECIRALGQNKAHTPFRESKLTQVLRDSFIGENSRTCMIATISPGISSCEYTLNTLRYADRVKELSPHSGPSGEQLIQMETEEMEACSNGALIPGNLSKEEEELSSQMSSFNEAMTQIRELEEKAMEELKEIIQQGPDWLELSEMTEQPDYDLETFVNKAESALAQQAKHFSALRDVIKALRLAMQLEEQASRQISSKKRPQ
B3: Flag-tagged human Aurora kinase A (AURKA) (enzyme, UniProt O14965 1-403)
chain: MDRSKENCISGPVKATAPVGGPKRVLVTQQFPCQNPLPVNSGQAQRVLCPSNSSQRIPLQAQKLVSSHKPVQNQKQKQLQATSVPHPVSRPLNNTQKSKQPLPSAPENNPEEELASKQKNEESKKRQWALEDFEIGRPLGKGKFGNVYLAREKQSKFILALKVLFKAQLEKAGVEHQLRREVEIQSHLRHPNILRLYGYFHDATRVYLILEYAPLGTVYRELQKLSKFDEQRTATYITELANALSYCHSKRVIHRDIKPENLLLGSAGELKIADFGWSVHAPSSRRTTLCGTLDYLPPEMIEGRMHDEKVDLWSLGVLCYEFLVGKPPFEANTYQETYKRISRVEFTFPDFVTEGARDLISRLLKHNPSQRPMLREVLEHPWITANSSKPSNCQNKESASKQS
B4: HA-tagged human NUSAP1 c.1209C>G (p.Tyr403*) truncated mutant (domain or fragment, UniProt Q9BXS6-1 1-402)
chain: MIIPSLEELDSLKYSDLQNLAKSLGLRANLRATKLLKALKGYIKHEARKGNENQDESQTSASSCDETEIQISNQEEAERQPLGHVTKTRRRCKTVRVDPDSQQNHSEIKISNPTEFQNHEKQESQDLRATAKVPSPPDEHQEAENAVSSGNRDSKVPSEGKKSLYTDESSKPGKNKRTAITTPNFKKLHEAHFKEMESIDQYIERKKKHFEEHNSMNELKQQPINKGGVRTPVPPRGRLSVASTPISQRRSQGRSCGPASQSTLGLKGSLKRSAISAAKTGVRFSAATKDNEHKRSLTKTPARKSAHVTVSGGTPKGEAVLGTHKLKTITGNSAAVITPFKLTTEATQTPVSNKKPVFDLKASLSRPLNYEPHKGKLKPWGQSKENNYLNQHVNRINFYKKT
B5: HA-tagged human NUSAP1 c.1213C>T (p.Gln405*) truncated mutant (domain or fragment, UniProt Q9BXS6-1 1-404)
chain: MIIPSLEELDSLKYSDLQNLAKSLGLRANLRATKLLKALKGYIKHEARKGNENQDESQTSASSCDETEIQISNQEEAERQPLGHVTKTRRRCKTVRVDPDSQQNHSEIKISNPTEFQNHEKQESQDLRATAKVPSPPDEHQEAENAVSSGNRDSKVPSEGKKSLYTDESSKPGKNKRTAITTPNFKKLHEAHFKEMESIDQYIERKKKHFEEHNSMNELKQQPINKGGVRTPVPPRGRLSVASTPISQRRSQGRSCGPASQSTLGLKGSLKRSAISAAKTGVRFSAATKDNEHKRSLTKTPARKSAHVTVSGGTPKGEAVLGTHKLKTITGNSAAVITPFKLTTEATQTPVSNKKPVFDLKASLSRPLNYEPHKGKLKPWGQSKENNYLNQHVNRINFYKKTYK

Key:
Experiment in all cases: co-IP
[1] = target: T1, Flag-tagged human Aurora kinase A (AURKA) (human)
[2] = target: T2, Flag-tagged human KIF2C (human)
[3] = target: T3, GFP-tagged human KIF2C (human)
[4] = target: T4, HA-tagged human NUSAP1 (nucleolar and spindle-associated protein 1), wild type (human)

| Binder | binding [1] | binding [2] | binding [3] | binding [4] |
| --- | --- | --- | --- | --- |
| B1 | binds | binds | binds | – |
| B2 | – | – | – | binds |
| B3 | – | – | – | binds |
| B4 | binds | – | – | – |
| B5 | binds | – | – | – |
